Assay results reported in article PMC12170873, “The Spc105/Kre28 complex promotes mitotic error correction by outer kinetochore recruitment of Ipl1/Sli15” (The EMBO Journal, 2025).
No constants are given. Whether binding was seen depends on the method and setting. For some assays here: Binding seen in cells or lysates may run through a third protein. Some binding calls cover weakened binding; strength is not graded here. For some assays here: Where a sequence is shown, tags or fusion partners need not be part of it.

By UniProt entry, the sequences of proteins in these tests, tags left out. Where a name states a change or a piece, a line headed by the entry shows the natural chain unless it says otherwise.
UniProt P40460: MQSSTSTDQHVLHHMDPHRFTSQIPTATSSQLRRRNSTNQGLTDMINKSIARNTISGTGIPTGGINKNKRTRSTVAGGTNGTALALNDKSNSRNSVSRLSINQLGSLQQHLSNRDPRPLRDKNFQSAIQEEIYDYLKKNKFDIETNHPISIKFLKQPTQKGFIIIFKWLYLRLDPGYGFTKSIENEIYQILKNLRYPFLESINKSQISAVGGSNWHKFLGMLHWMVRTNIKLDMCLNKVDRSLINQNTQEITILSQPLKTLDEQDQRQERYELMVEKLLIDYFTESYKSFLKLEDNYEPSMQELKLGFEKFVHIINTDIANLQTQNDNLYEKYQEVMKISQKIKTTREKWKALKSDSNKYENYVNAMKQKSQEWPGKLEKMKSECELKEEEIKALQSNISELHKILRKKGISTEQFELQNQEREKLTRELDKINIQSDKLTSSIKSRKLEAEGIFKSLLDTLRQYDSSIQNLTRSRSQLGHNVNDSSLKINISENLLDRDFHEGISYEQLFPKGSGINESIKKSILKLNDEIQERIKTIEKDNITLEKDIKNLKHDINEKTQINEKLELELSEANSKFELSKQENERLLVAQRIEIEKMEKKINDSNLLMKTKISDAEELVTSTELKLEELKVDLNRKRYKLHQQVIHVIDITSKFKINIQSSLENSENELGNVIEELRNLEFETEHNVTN
UniProt P33895: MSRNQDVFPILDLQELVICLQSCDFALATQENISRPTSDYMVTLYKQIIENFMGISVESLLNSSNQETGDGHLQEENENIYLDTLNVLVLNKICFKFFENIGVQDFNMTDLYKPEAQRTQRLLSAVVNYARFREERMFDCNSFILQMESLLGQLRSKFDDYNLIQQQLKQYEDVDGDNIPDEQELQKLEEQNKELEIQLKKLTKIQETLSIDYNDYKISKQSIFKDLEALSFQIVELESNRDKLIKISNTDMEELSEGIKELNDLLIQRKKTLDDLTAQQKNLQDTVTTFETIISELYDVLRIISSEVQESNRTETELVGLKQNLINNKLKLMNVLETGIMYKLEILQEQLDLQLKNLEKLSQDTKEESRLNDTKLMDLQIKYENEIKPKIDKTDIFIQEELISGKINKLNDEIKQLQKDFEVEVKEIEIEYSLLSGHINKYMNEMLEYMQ
UniProt Q04477: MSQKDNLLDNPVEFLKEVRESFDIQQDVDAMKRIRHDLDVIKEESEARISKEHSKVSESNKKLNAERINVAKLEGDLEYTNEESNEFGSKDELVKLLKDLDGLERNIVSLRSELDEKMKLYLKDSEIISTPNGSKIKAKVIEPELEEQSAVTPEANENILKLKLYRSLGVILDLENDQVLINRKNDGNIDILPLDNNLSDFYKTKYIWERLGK
UniProt P40014: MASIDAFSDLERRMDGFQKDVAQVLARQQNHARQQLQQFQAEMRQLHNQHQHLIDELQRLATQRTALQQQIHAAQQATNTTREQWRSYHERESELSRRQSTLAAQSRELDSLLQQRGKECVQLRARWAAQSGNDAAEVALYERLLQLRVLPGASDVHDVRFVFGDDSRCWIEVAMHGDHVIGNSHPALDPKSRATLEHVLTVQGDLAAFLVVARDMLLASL

T1: Spc105-Flag/Kre28 complex (S. cerevisiae, UniProt P53148 1-917; Q04431 1-385)
T1 construct: Spc105 (Knl1 homologue), S. cerevisiae; Kre28 (Zwint homologue), S. cerevisiae, wild type; the asterisk is not explained; A potential proteolysis product of full-length Spc105 is marked in the gels; also called Spc105/Kre28; K subcomplex; source: Sf9 insect cells (baculovirus pFAP10), purified on anti-Flag M2 beads; also as part of the co-expressed KMN network (KT1-5 and KT1-6); not shown: Flag, …
T1 sequence (looked up) 1: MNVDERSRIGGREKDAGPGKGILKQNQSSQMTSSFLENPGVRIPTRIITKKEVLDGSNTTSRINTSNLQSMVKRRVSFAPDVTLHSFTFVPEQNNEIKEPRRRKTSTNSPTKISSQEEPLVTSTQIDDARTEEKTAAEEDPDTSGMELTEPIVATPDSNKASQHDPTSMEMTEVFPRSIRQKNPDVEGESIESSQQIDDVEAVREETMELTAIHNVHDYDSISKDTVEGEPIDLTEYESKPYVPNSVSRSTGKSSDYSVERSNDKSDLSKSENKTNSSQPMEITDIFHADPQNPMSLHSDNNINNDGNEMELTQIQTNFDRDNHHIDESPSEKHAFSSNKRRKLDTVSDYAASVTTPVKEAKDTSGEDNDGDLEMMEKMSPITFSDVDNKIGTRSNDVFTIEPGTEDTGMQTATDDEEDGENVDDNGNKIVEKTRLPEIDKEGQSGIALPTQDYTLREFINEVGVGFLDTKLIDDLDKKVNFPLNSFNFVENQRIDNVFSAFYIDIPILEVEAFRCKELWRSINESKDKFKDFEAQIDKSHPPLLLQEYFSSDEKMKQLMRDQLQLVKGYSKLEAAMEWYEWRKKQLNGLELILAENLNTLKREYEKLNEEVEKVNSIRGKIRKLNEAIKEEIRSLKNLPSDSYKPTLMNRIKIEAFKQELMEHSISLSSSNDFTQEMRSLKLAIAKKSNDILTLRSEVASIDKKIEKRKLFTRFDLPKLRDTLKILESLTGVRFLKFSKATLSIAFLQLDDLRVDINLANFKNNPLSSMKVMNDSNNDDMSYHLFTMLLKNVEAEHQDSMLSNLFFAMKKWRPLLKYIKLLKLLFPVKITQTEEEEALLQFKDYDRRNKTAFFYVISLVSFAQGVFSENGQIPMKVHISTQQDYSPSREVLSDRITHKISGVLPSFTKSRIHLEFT
T1 sequence (looked up) 2: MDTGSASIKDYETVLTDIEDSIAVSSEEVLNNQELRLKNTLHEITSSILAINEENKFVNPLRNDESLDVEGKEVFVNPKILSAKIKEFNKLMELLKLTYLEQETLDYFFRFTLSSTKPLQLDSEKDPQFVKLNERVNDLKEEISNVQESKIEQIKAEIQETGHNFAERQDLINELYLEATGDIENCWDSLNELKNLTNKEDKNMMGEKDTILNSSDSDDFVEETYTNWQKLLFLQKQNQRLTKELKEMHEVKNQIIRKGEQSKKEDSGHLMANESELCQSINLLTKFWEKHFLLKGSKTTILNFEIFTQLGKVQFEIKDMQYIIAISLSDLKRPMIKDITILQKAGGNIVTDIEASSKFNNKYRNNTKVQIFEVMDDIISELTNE

T2: Spc105-Flag/Kre28^ΔZwint complex, as part of the mutant KMN network (S. cerevisiae) (UniProt P53148+Q04431)
T2 sequence 1: T1 sequence (looked up) 1
T2 sequence 2: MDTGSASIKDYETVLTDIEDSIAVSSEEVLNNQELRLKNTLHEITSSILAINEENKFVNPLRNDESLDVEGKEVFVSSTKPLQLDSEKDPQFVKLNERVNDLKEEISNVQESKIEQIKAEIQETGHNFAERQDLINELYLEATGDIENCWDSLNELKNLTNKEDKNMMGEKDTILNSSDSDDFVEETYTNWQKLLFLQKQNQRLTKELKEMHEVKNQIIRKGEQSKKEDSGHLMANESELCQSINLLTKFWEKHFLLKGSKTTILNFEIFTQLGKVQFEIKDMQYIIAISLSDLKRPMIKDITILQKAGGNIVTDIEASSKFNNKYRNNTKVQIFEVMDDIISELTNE

T3: Spc105-Flag (S. cerevisiae) (UniProt P53148)
T3 sequence: T1 sequence (looked up) 1

B1: Kre28^WT, untagged (protein, UniProt Q04431 1-385)
chain: T1 sequence (looked up) 2
B2: 6xHis-Sli15 (protein, UniProt P38283 1-698)
chain: MDWAIKAARKKTQRKPGSTRSIIETLDDLNNLTTDAHSEINQRLYESSEWLRNNVYMNTLKYEDKKMEESLISPENTHNKMDVEFPKMKGEYELSNSQNDAAKDVTKTPRNGLHNDKSITPKSLRRKEVTEGMNRFSIHDTNKSPVEPLNSVKVDANESEKSSPWSPYKVEKVLRESSKTSESPINTKRFDNQTWAAKEEMENEPILQALKKAESVKVKPPPNSGIARSQRRSNMFVPLPNKDPLIIQHIPPTKSSGSIPKVRTVKESPIAFKKKSTINSPAIRAVENSDTAGSTKASSVFDRLSSIPTKSFENKISRGNVGHKYSSSSIDLTGSPMKKVSQKFKSINSTDTDMQEALRDIFSVKNKITKNNSPKGKNSRKSSIPRFDKTSLKLTTHKKLAIIAEQKKKSKHSSDVHKTGSRPHSISPTKISVDSSSPSKEVKNYYQSPVRGYLRPTKASISPNKNKNLTTSQTPHRLKIKEKTLRKLSPNIADISKPESRKSKNYRLTNLQLLPPAEAERDDLKKKFDKRLSGIMRSQQEHHRRKQEKQKRMSHLEQDLKKQTSFSNDYKDIRLKESLAPFDNHVRDTINKNTAFSTDNILATINTVDHREIIGNVTPKIASVNDSLPEINTDSEDEASVTLAAWAKSPYLQEQLIRQQDINPQTIFGPIPPLHTDEIFPNPRLNRLKPRQIVPKRS
B3: Mtw1 complex (Mtw1, Dsn1, Nnf1, Nsl1), as co-expressed in the KMN network (complex, UniProt P39731 1-289; P40568 1-576; P47149 1-201; Q12143 1-216)
chain 1: MSAPTMRSTSILTEHLGYPPISLVDDIINAVNEIMYKCTAAMEKYLLSKSKIGEEDYGEEIKSGVAKLESLLENSVDKNFDKLELYVLRNVLRIPEEYLDANVFRLENQKDLVIVDENELKKSEEKLREKVNDVELAFKKNEMLLKRVTKVKRLLFTIRGFKQKLNELLKCKDDVQLQKILESLKPIDDTMTLLTDSLRKLYVDSESTSSTEEVEALLQRLKTNGKQNNKDFRTRYIDIRTNNVLRKLGLLGDKEDEKQSAKPDARTQAGDIVSIDIEEPQLDLLDDVL
chain 2: MSLEPTQTVSGTPPMLHQRTHKQVYPLRMETIPILESDSKATLQSNEPTQKDEEETEYFENKQSVSNLSPDLKFKRHKNKHIQGFPTLGERLDNLQDIKKAKRVENFNSSAPIADDNHSGDATANATANATANATANVNASAMPAPYMPYYYYYHPMNAPTPAMIPYPGSPMHSIMPNSSLQPFYSQPTAAGGPDMTTPQNISSSQQLLPAPQLFPYGSFHQQQLQQPHYIQRTRERKKSIGSQRGRRLSMLASQANGGSTIISPHKDIPEEDFYTVVGNASFGKNLQIRQLFNWCLMRSLHKLELKAKNQEEEGELEHLTKKSKLESTKAETDYVDPKRLAMVIIKEFVDDLKKDHIAIDWEDEEKYEDEDEEKILDNTENYDDTELRQLFQENDDDDDDDDEVDYSEIQRSRRKFSERRKALPKEPKKLLPNSKNVENTKNLSILTSKVNAIKNEVKEWAVTLDTSRPDLEWQELTSFSSQPLEPLSDTEEPDLAIADVETKLETKVDELRYQSHILNSHSLALNEITNSKVNKLNIETMRKISSETDDDHSQVINPQQLLKGLSLSFSKKLDL
chain 3: MVNSHGIRYIRLKQVFNRALDQSISKLQSWDKVSSCFPQYVNSKQGAINVANCQRQLTEFWTELCQREFKEIMEERNVEQKLNELDELILEAKERYTDRDQDEVNKGPAIDELSSKELVECHLYSQRMHAIHEIDERLAKVNEMNDQLAQELKDLETQVEVEKNEIGKMYDEYLGSHTDQPANVLLVQSLNDMVLELKENY
chain 4: MSQGQSKKLDVTVEQLRSIYHQFHDILEEKTDLHLPKKEYDDDAVRREVQIQLQEFLLSAMTMASKSLEVVNADTVGKTVKQLIMESQEKYMEPFDLDLNEQVRKMYQEWEDETVKVAQLRQTGPAKINEVYNNSKDEYLAQLDGRIGVLQARMMQQQSADHDDSTDDADDHINWEHIKQDYVASLNELYQTQQDLPKVRYNVEKVKRLMDFLEED

Key:
[1] = molecular target: T1, Spc105-Flag/Kre28 complex; assay: SEC; ten KMN subunits co-expressed in Sf9 cells from two baculoviruses; single-step anti-Flag purification via Spc105-Flag, then analytical SEC on a Superose 6 column
[2] = molecular target: T2, Spc105-Flag/Kre28^ΔZwint complex, as part of the mutant KMN network (S. cerevisiae); assay: pull-down; co-expressed KMN (Kre28^WT or Kre28^ΔZwint) bound from cleared Sf9 lysate to anti-Flag M2 beads via Spc105-Flag; Mtw1c/Ndc80c kept on the beads seen by Coomassie; interaction buffer with 200 mM NaCl, 4 °C; also with prolonged incubation times (Fig. EV3A)
[3] = molecular target: T3, Spc105-Flag (S. cerevisiae); assay: SEC; ten KMN subunits co-expressed in Sf9 cells from two baculoviruses; single-step anti-Flag purification via Spc105-Flag, then analytical SEC on a Superose 6 column
[4] = molecular target: T3, Spc105-Flag (S. cerevisiae); assay: cross-linking; recombinant KMN and Ipl1/Sli15 mixed at equimolar amounts, BS3 (d0/d12), 35 °C, 30 min; cross-links identified by mass spectrometry (xQuest); both purified
[5] = molecular target: T1, Spc105-Flag/Kre28 complex; assay: cross-linking; cross-links among the subcomplexes inside the co-expressed, co-purified KMN network (in the KMN-Ipl1/Sli15 sample); BS3 (d0/d12), 35 °C, 30 min; mass spectrometry
[6] = molecular target: Ndc80 complex (Ndc80, Nuf2, Spc24, Spc25), untagged, as co-expressed in the KMN network (S. cerevisiae) (UniProt P40460+P33895+Q04477+P40014); assay: as above

Row | Molecule | binding [1] | binding [2] | also measured
1 | Ndc80 complex (Ndc80, Nuf2, Spc24, Spc25), untagged, as co-expressed in the KMN network (from UniProt P40460 1-691; P33895 1-451; Q04477 1-213; P40014 1-221) | binds | binds | 
2 | B1 |  |  | binding [3]: binds
3 | B2 |  |  | binding [4]: binds
4 | B3 | binds | binds | binding [5]: binds; binding [6]: binds
